Results are given in words; binding and its absence hold for the method and conditions named. Binding seen in cells or lysates may run through a third protein. Some results given as binding are weak or reduced against the parent protein; the word gives no strength. Where a sequence is shown, tags or fusion partners need not be part of it.
How the values were obtained:
[1] = target: T1, UGT1A1 canonical enzyme (human) (UniProt P22309); experiment: co-IP; co-IP with anti-myc (UGT1A1) or control IgG antibodies; blots with anti-UGT1A (RC-71) and anti-Flag (OGDHL)
T1 sequence: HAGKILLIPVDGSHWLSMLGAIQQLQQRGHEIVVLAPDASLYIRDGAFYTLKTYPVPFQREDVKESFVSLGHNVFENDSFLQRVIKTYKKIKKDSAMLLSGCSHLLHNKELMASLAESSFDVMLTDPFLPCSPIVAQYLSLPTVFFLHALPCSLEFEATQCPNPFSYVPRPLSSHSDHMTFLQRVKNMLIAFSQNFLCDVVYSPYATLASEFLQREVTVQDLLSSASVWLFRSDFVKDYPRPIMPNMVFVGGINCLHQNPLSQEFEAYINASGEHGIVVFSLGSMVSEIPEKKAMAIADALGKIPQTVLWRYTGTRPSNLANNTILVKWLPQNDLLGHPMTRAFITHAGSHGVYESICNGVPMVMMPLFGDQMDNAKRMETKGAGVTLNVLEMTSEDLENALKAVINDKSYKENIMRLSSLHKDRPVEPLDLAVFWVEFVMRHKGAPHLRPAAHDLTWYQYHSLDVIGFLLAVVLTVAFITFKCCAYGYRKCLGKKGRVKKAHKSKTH

[2] = target: T2, UGT1A1 isoform 2 (UGT1A1_i2-V5-His), alternative splicing-derived UGT1A1 protein (human) (UniProt P22309); experiment: co-IP; HEK293 cells stably expressing UGT1A1_i2-V5-His and transfected with OGDHL-Myc-DDK; proteins crosslinked with 0.125% paraformaldehyde 10 min 37 °C; lysis in 175 mM Tris-HCl pH 7.4, 150 mM NaCl, 1% Igepal, 1 mM DTT; magnetic beads with goat anti-V5 or control IgG, 2 h 4 °C; blots with anti-V5 and anti-Flag
T2 sequence: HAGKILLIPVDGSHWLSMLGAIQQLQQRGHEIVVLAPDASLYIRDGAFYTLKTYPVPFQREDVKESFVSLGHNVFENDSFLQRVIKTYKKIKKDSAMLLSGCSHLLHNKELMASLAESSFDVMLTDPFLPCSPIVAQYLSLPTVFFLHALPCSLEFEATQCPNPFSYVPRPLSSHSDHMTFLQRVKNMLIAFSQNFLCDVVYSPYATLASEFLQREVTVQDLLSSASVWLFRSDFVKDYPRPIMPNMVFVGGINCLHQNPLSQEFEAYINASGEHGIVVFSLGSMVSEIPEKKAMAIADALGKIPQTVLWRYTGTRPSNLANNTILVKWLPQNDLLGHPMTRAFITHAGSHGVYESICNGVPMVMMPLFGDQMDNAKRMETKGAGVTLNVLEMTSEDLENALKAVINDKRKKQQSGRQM

B1: oxoglutarate dehydrogenase-like protein (OGDHL-Myc-DDK) (protein, UniProt Q9ULD0 74-1010)
chain: FREASEEAFSGSAQPRPPSVVHESRSAVSSRTKTSKLVEDHLAVQSLIRAYQIRGHHVAQLDPLGILDADLDSFVPSDLITTIDKLAFYDLQEADLDKEFQLPTTTFIGGSENTLSLREIIRRLENTYCQHIGLEFMFINDVEQCQWIRQKFETPGVMQFSSEEKRTLLARLVRSMRFEDFLARKWSSEKRFGLEGCEVMIPALKTIIDKSSEMGIENVILGMPHRGRLNVLANVIRKDLEQIFCQFDPKLEAADEGSGDVKYHLGMYHERINRVTNRNITLSLVANPSHLEAVDPVVQGKTKAEQFYRGDAQGKKVMSILVHGDAAFAGQGVVYETFHLSDLPSYTTNGTVHVVVNNQIGFTTDPRMARSSPYPTDVARVVNAPIFHVNADDPEAVIYVCSVAAEWRNTFNKDVVVDLVCYRRRGHNEMDEPMFTQPLMYKQIHRQVPVLKKYADKLIAEGTVTLQEFEEEIAKYDRICEEAYGRSKDKKILHIKHWLDSPWPGFFNVDGEPKSMTCPATGIPEDMLTHIGSVASSVPLEDFKIHTGLSRILRGRADMTKNRTVDWALAEYMAFGSLLKEGIHVRLSGQDVERGTFSHRHHVLHDQEVDRRTCVPMNHLWPDQAPYTVCNSSLSEYGVLGFELGYAMASPNALVLWEAQFGDFHNTAQCIIDQFISTGQAKWVRHNGIVLLLPHGMEGMGPEHSSARPERFLQMSNDDSDAYPAFTKDFEVSQLYDCNWIVVNCSTPANYFHVLRRQILLPFRKPLIIFTPKSLLRHPEAKSSFDQMVSGTSFQRVIPEDGAAARAPEQVQRLIFCTGKVYYDLVKERSSQDLEEKVAITRLEQISPFPFDLIKQEAEKYPGAELAWCQEEHKNMGYYDYISPRFMTILRRARPIWYVGRDPAAAPATGNRNTHLVSLKKFLDTAFNLQAFEGKTF
binding [1]: no binding | binding [2]: binds
